Laboratory results reported in publication PMC7819943, “Rice protein-binding microarrays: a tool to detect cis-acting elements near promoter regions in rice”.
The list shows a part of the results.

By UniProt entry, the sequences of proteins in these tests, tags left out.
UniProt Q0JBA9, entry or part of it: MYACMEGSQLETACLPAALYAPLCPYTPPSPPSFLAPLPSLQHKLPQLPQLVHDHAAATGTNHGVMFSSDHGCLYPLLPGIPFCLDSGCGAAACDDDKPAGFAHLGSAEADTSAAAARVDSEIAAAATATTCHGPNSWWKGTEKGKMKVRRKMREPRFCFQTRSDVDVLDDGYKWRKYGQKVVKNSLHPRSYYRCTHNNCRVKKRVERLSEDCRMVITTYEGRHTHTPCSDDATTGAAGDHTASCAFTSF

Molecular target: OsWRKY34 (Oryza sativa, UniProt Q0JBA9 1-250)
Experiment: protein-binding microarray (RPBM); PBS, 2% BSA, 51.3 ng/ul salmon testes DNA, 50 uM zinc acetate, 200 nM TF, 25 C, 1 h; high values mean tight binding
Conditions: protein: recombinant; tags: N-terminal polyhistidine and DsRed monomer fusion (pET32a); label: CyDye5-dUTP incorporated in the synthesized complementary strand; 3' TTTTT single-stranded linker to array surface; dsDNA, one strand shown
Summary of the method: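 In PBS with 2% BSA, salmon testes DNA and 50 µM zinc acetate, 200 nM protein was incubated on a custom Agilent array at 25 °C for 1 h and then washed off. The array had been made double-stranded by primer extension with Cy5-dUTP and blocked with 2% BSA. The proteins were transcription factors fused N-terminally to polyhistidine and DsRed, expressed in E. coli BL21-CodonPlus and purified on Ni–NTA. The binding signal is per-feature fluorescence intensity (arbitrary units) from an Axon 4000B scanner.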

Sequence	binding signal
TGCGTACATATAAATTTCATATCGGGGTTGTGGAAGTCCACGGAGTCACCTAGTGCAG	8190 fluorescence intensity (a.u.)
TGAAATGTATCATCTTGGTGTTATTTGACTGAGTCATAATCGGAGTCACCTAGTGCAG	9570 fluorescence intensity (a.u.)
CCACCCTTCGCCGCCGCTTTGTTTCTCCCGCCGCCGCCGGCGGAGTCACCTAGTGCAG	12900 fluorescence intensity (a.u.)
GAGTTTTTTTTAGACCGAGGGGTATGCATATTTTTTGGTTCGGAGTCACCTAGTGCAG	8620 fluorescence intensity (a.u.)
ATGTGATACGTTTACTACCTTGGCATCATGTTCTTTAGGACGGAGTCACCTAGTGCAG	8350 fluorescence intensity (a.u.)
CATCTCTCTCGCTGGAATATTCTGAAGCTGCTATGTCAACCGGAGTCACCTAGTGCAG	9170 fluorescence intensity (a.u.)
ATAAGATTTGAATGGGTGTTGGATTTGTCTTTTTTATTTCCGGAGTCACCTAGTGCAG	8200 fluorescence intensity (a.u.)
TCTAAGCCGATGACGCCTTTGTCGATTACCAATTTTCACTCGGAGTCACCTAGTGCAG	9070 fluorescence intensity (a.u.)
GAGCAACATAAGCGGTCCAAGGTAGAATTGAACACCAGAACGGAGTCACCTAGTGCAG	9290 fluorescence intensity (a.u.)
TACACCAGCCTAAATCAACGTCCACCTACAATTCCACACTCGGAGTCACCTAGTGCAG	9470 fluorescence intensity (a.u.)
CTTCGCAGCTTCTTTGTCAACTTACTCTCGTCCATGCCACCGGAGTCACCTAGTGCAG	8730 fluorescence intensity (a.u.)
CTCTCTCTCTCTCTCTCTCTCCTCACGCCGACGCCTCCGTCGGAGTCACCTAGTGCAG	10700 fluorescence intensity (a.u.)
CATGGTATGTGGTGGGTCCTGTCGAGATTTAGTCAACTACCGGAGTCACCTAGTGCAG	11655 ± 9.9 fluorescence intensity (a.u.)
TATATATATATATATATATATATATAGAAATTAAGTCAAACGGAGTCACCTAGTGCAG	8940 fluorescence intensity (a.u.)
TGGACCTCTAGCCGATGTATGCTTTAACCTTCAGATCAGTCGGAGTCACCTAGTGCAG	8720 fluorescence intensity (a.u.)
CCACCGCCTTTGCCTATGCGGCTCCGCTCCCGCCGGCCATCGGAGTCACCTAGTGCAG	8400 fluorescence intensity (a.u.)
ACCGAACTTGAGAACGACGTCCCGCTTCCGCACCTGCAATCGGAGTCACCTAGTGCAG	8340 fluorescence intensity (a.u.)
TTGGACACCATGCCTGCCTCTTTACACACACATTAATTTACGGAGTCACCTAGTGCAG	9300 fluorescence intensity (a.u.)
TCATGCTCCCAACATCGTCGCAAAGTGCTCATCTGAACCTCGGAGTCACCTAGTGCAG	9190 fluorescence intensity (a.u.)
TCCGCCACCGCCGCCTGCGCCGATCCCCATCCATCCCGCGCGGAGTCACCTAGTGCAG	10000 fluorescence intensity (a.u.)
GGTTTCTTCCGTGTTCCTTTCGTAACAAGGGAGTTCTTCTCGGAGTCACCTAGTGCAG	11800 fluorescence intensity (a.u.)

Sequence	binding signal
GCTCTTGCGTCGGCGGCCTCTCCGGCCACGGCGTTCTCTTCGGAGTCACCTAGTGCAG	8130 fluorescence intensity (a.u.)
ACGGTGGCGTTGTGCCCTGTGATGGTGTCCGCGTTGTGTCCGGAGTCACCTAGTGCAG	8990 fluorescence intensity (a.u.)
TGTAAACATTGTTTTCTTGCACTTTCTAACATTTTTTTCTCGGAGTCACCTAGTGCAG	10600 fluorescence intensity (a.u.)
CTCACCTTTGACCGGCCGTAATAATCCCCGACACATAAGCCGGAGTCACCTAGTGCAG	8330 fluorescence intensity (a.u.)
TTGGTGGACGCCACGGTTTTCTCCCTCAGCTCATCGTTTCCGGAGTCACCTAGTGCAG	10400 fluorescence intensity (a.u.)
ATTGCTTCCATGTTCAGAATATATTAACACACGATTAATTCGGAGTCACCTAGTGCAG	8770 fluorescence intensity (a.u.)
CTGCCTGTCCCTTTCCTGCATCCATCCATCCATCTTGATCCGGAGTCACCTAGTGCAG	10600 fluorescence intensity (a.u.)
TTCGTCTCGCAGTTTACAGGCAAAATCTGTATTTTGTTTTCGGAGTCACCTAGTGCAG	9160 fluorescence intensity (a.u.)
GCTACCATCGTCACCGCCTCAACCAAGCTACCCGTGTCTCCGGAGTCACCTAGTGCAG	10400 fluorescence intensity (a.u.)
ACATCCTCACCACCTTAGTTCGGGTCATCTTTGGCTCTAACGGAGTCACCTAGTGCAG	8900 fluorescence intensity (a.u.)
CATCTGCTGCACCCTAATTGGTATCTACTCCTCATCTAATCGGAGTCACCTAGTGCAG	8590 fluorescence intensity (a.u.)
CGCCCACGGCGTGTCCCCTGCGTGCGTGGCGCACCCGCACCGGAGTCACCTAGTGCAG	11900 fluorescence intensity (a.u.)
TTCCATTGTGTCTATAGGCATCAAGCTTCAGTGGTGCACACGGAGTCACCTAGTGCAG	8820 fluorescence intensity (a.u.)
GCTACTGCAATGACGCGTGCTAACCTCCCGTGCCATTTCGCGGAGTCACCTAGTGCAG	8140 fluorescence intensity (a.u.)
GGATAATGATTTGACATTGATTGCGGTCTCGTTATTTTCTCGGAGTCACCTAGTGCAG	8180 fluorescence intensity (a.u.)
CCTCCCGCGCCCTCTGCCTCTGCTCGTCGGCTCGTCGCCTCGGAGTCACCTAGTGCAG	12000 fluorescence intensity (a.u.)
GCAGGATATTACACTTCTACATCTTCTTGTGTATGCTTGACGGAGTCACCTAGTGCAG	10800 fluorescence intensity (a.u.)
TTTACCTCTCTGCCGGCCTTTGCACGCTTGTAGCCCACCACGGAGTCACCTAGTGCAG	9670 fluorescence intensity (a.u.)
TAAGCCTCACCACCCATGGGTCAACATGTCATTTGACCATCGGAGTCACCTAGTGCAG	10700 fluorescence intensity (a.u.)
ACTAGTTTGATGTGTGGTTTAGTTGCAGAGTTCCCTGCAACGGAGTCACCTAGTGCAG	8090 fluorescence intensity (a.u.)
TTTTCCGTCCGCCTTGATCGCTATTGACCTAGCCACGCACCGGAGTCACCTAGTGCAG	10100 fluorescence intensity (a.u.)

Sequence	binding signal
TGCCGTGTTCGTGTGGGTACAGTATCTTGGAAGACAAGGGCGGAGTCACCTAGTGCAG	8180 fluorescence intensity (a.u.)
GGCTCTTGCGAGTATGCCGATGCTTCAGAACTTGTCCCTGCGGAGTCACCTAGTGCAG	9830 fluorescence intensity (a.u.)
GCTACATCAGCGGCGGAGGTGGAGGTGGAGGGGTAAGGTGCGGAGTCACCTAGTGCAG	11600 fluorescence intensity (a.u.)
GGCCACCTTAACGTCGTCGCTCCCGTTGTTGAACACGTACCGGAGTCACCTAGTGCAG	11100 fluorescence intensity (a.u.)
AGTTGTAAATCAAATTAAGTTTACTTTGTGTCCCTTTTCTCGGAGTCACCTAGTGCAG	10200 fluorescence intensity (a.u.)
CATAGAGCCACTTAAGTTTCCTCGTTGTGATACTTTGACACGGAGTCACCTAGTGCAG	9640 fluorescence intensity (a.u.)
TTCCATTCGTCCATGCCGCCGCCGTAGTCCTCTTCTTCTTCGGAGTCACCTAGTGCAG	12900 fluorescence intensity (a.u.)
ACACTATTAATACTTGGTCCCATCTGTCATACACACACTGCGGAGTCACCTAGTGCAG	9320 fluorescence intensity (a.u.)
CAAGCGCCATGTGTTCCTCCTCGCCATGGCACCTAATCTCCGGAGTCACCTAGTGCAG	8110 fluorescence intensity (a.u.)
TTTTCCTGAATGACATAAATGGGTCACACATATATTTTTTCGGAGTCACCTAGTGCAG	8560 fluorescence intensity (a.u.)
TCTCTCAAATTCTCAACTTTCCATCATATTATATCACATACGGAGTCACCTAGTGCAG	8160 fluorescence intensity (a.u.)
GTGGCCGTTGACCAGGGCGCTCTGGCAGCTGTCGGTCGTCCGGAGTCACCTAGTGCAG	11300 fluorescence intensity (a.u.)
GCTATGTCCCTTTTGCTTATACCTTGGGGCCACACCCTTTCGGAGTCACCTAGTGCAG	10700 fluorescence intensity (a.u.)
GCCGAGATGACACATGCTTTTCATGGCTCCTATGCTATAACGGAGTCACCTAGTGCAG	8180 fluorescence intensity (a.u.)
GCCACTTTGCACGCCCGTGCCGCGCCTCGCCTCGCCTCTGCGGAGTCACCTAGTGCAG	9280 fluorescence intensity (a.u.)
TGCTTTTGTTTCGGTGTGAGGACTAAGTGCCTCTCCTGTACGGAGTCACCTAGTGCAG	9440 fluorescence intensity (a.u.)
AGTCAACTTTTAGCCCATTTACTTCCAACTAATGAACTTGCGGAGTCACCTAGTGCAG	8150 fluorescence intensity (a.u.)
CAGTCACTCTCCACCCTTAGCTACAGCTACTACAAGTTGACGGAGTCACCTAGTGCAG	9090 fluorescence intensity (a.u.)
AGATGGTGTTTGGATGGGAGGGATTTATTTTAGTCCCTCTCGGAGTCACCTAGTGCAG	10200 fluorescence intensity (a.u.)
TCTATTGTTCTAAAGCTTTTATCTTACTTGTTTTCTAATTCGGAGTCACCTAGTGCAG	10500 fluorescence intensity (a.u.)
TTCCCCACATTTTACGGCCAGTTCTTTCTTCTCCGTCGACCGGAGTCACCTAGTGCAG	10700 fluorescence intensity (a.u.)

Sequence	binding signal
TGAATGCACCATGTCTTTTGCTCCGTCCGTCATAAAAAAACGGAGTCACCTAGTGCAG	8950 fluorescence intensity (a.u.)
ACACCTCTCTTTTGCCAACCAAATTGTGATTCTATTTTCCCGGAGTCACCTAGTGCAG	9000 fluorescence intensity (a.u.)
TCCCGTTGTTGAACACGTACAAATGGCTGCTGCTCGTCGCCGGAGTCACCTAGTGCAG	8320 fluorescence intensity (a.u.)
CAGGTTACAAGACATTTTGACTTTGGTCAAAGTCAAATTGCGGAGTCACCTAGTGCAG	11200 fluorescence intensity (a.u.)
GCGTCGGGGAGGAGCTCGTGGTGGCAGTGGCCGAGGACGGCGGAGTCACCTAGTGCAG	11300 fluorescence intensity (a.u.)
TCCACCGCGTCGCCGACGGCTCCATTACCGTCCCCTAACCCGGAGTCACCTAGTGCAG	9140 fluorescence intensity (a.u.)
AATACGCAGATATGTGCTCACTGCCTAGCTACCAGTCTTGCGGAGTCACCTAGTGCAG	8230 fluorescence intensity (a.u.)
CATGGGCTTTCTTTGTCCTGCATGCCTCCATGCCGATATCCGGAGTCACCTAGTGCAG	11200 fluorescence intensity (a.u.)
GGGAGGTGGATAAGTGGTGGAGAGAGATGTGAAAGAAAGACGGAGTCACCTAGTGCAG	8970 fluorescence intensity (a.u.)
GCCAATATGCTCGCCGCCGCCGCCTCCGTCAAGCTCTCCACGGAGTCACCTAGTGCAG	9410 fluorescence intensity (a.u.)
CTCGATCCCTTCGAACACCCTTGCGTTTCGCTCTTTCCAACGGAGTCACCTAGTGCAG	9400 fluorescence intensity (a.u.)
TAAGAAATTTTGACTTTAGTCAAAGTCAAACTGCTTTAAACGGAGTCACCTAGTGCAG	11200 fluorescence intensity (a.u.)
CCATTCCGCCCACTAGCTTTCTCTCTCTATTTTCTTTTTCCGGAGTCACCTAGTGCAG	16800 fluorescence intensity (a.u.)
TTATCTTGCTGATGGCATATATCCTTCTTGGGCCACATTTCGGAGTCACCTAGTGCAG	8240 fluorescence intensity (a.u.)
ACATCGCCTGGGCCATCCAGAAGCTCTCCGGCTTCTGCATCGGAGTCACCTAGTGCAG	8120 fluorescence intensity (a.u.)
CACTACTTCTACTACTCGCCGCCACCCAAACCCAAAGCAGCGGAGTCACCTAGTGCAG	8370 fluorescence intensity (a.u.)
CTTCTTGCGTTCACTGTTGTTTACCTGTTATTTTTAATCTCGGAGTCACCTAGTGCAG	9160 fluorescence intensity (a.u.)
CCGCTCCGCATCCGCATCCGTACATTATTTGCATCTGCTCCGGAGTCACCTAGTGCAG	9550 fluorescence intensity (a.u.)
ATAGCATTAGCTGCTTGGTTTGACCATTGGTCATGGGGTTCGGAGTCACCTAGTGCAG	12300 fluorescence intensity (a.u.)
ATTAACGTTTCACCCGCGCGCGCCCACCTGCCGCTGCAATCGGAGTCACCTAGTGCAG	8650 fluorescence intensity (a.u.)
AATATAGTCTATTCAATTTCAGCTATAAGTTTTCTGTTTTCGGAGTCACCTAGTGCAG	9550 fluorescence intensity (a.u.)

Not a retest: an excerpt of the list.
Sequence	binding signal
TTTTCCTGAATGACATAAATGGGTCACACATATATTTTTTCGGAGTCACCTAGTGCAG	8560 fluorescence intensity (a.u.)
TCTCTCAAATTCTCAACTTTCCATCATATTATATCACATACGGAGTCACCTAGTGCAG	8160 fluorescence intensity (a.u.)
GTGGCCGTTGACCAGGGCGCTCTGGCAGCTGTCGGTCGTCCGGAGTCACCTAGTGCAG	11300 fluorescence intensity (a.u.)
GCTATGTCCCTTTTGCTTATACCTTGGGGCCACACCCTTTCGGAGTCACCTAGTGCAG	10700 fluorescence intensity (a.u.)
GCCGAGATGACACATGCTTTTCATGGCTCCTATGCTATAACGGAGTCACCTAGTGCAG	8180 fluorescence intensity (a.u.)
